Library screening results

The chains behind the UniProt entries cited, without tags or fusion partners.
UniProt E9BF75, entry or part of it: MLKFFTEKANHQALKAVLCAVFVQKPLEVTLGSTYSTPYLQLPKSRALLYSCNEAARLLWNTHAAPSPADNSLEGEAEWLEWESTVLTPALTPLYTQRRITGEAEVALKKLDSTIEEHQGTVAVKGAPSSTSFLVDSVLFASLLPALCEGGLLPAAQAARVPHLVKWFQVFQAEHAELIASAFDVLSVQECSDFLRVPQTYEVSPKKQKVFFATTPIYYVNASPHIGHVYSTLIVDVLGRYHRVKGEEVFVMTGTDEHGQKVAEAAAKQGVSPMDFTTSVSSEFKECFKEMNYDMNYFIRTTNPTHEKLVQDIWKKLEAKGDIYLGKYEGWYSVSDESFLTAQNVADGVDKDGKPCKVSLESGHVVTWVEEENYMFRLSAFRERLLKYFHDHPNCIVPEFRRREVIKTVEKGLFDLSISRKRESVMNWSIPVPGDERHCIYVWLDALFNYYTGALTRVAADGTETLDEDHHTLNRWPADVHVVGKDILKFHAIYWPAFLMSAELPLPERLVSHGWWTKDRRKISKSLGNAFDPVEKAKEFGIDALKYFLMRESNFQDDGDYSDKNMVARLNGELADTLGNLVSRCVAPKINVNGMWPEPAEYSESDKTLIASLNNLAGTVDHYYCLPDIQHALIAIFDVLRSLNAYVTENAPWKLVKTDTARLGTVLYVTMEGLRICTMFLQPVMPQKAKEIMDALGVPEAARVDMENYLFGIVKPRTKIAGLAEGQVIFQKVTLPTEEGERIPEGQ

Mtb heat-shock: 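Assay on Mycobacterium tuberculosis, filed only as a heat shock assay from Cornell; the read-out is not stated. The concentration is filed as 10 mM, unlikely as a test dose, so the dose is not known. The record gives no direction; compounds that gave an IC50 in retests scored well above the rest, so higher reads as stronger inhibition. Of about 69,000 compounds tested this way, about 930 (1.4%) reached 50% or more in at least one test.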
LdMetRS: 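Primary screen of methionyl-tRNA synthetase; the read-out is not stated. Target: Methionyl-tRNA synthetase (putative), Leishmania donovani (UniProt E9BF75). The test concentration is not given. The values are filed as inhibition. About 68,000 compounds were tested under these conditions; 0.035% (about 24) showed 50% or more at least once.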
Mtb growth Cornell: 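Whole-cell assay for inhibitors of Mycobacterium tuberculosis growth, labelled Cornell in the record; the read-out is not stated. The concentration is filed as 10 mM, unlikely as a test dose, so the dose is not known. The record gives no direction; compounds strong in two other growth screens of this library score well above the rest, so higher reads as stronger inhibition. Of about 53,000 compounds tested this way, about 900 (1.7%) reached 50% or more in at least one test.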

All values are in %. How 0% and 100% were set is not recorded. Most values in the screen are low, and negative values occur. The compounds are a random part of those screened. A dash means the value is not listed here; it may have been measured.

Compound,Mtb heat-shock,LdMetRS,Mtb growth Cornell
CCS(=O)(=O)N1CCC2(CCN(Cc3nccs3)CC2)CC1,-,7.268,-
Cc1ccccc1N1CCN(C(=O)Cn2ccnc2)CC1=O,-32.13,1.375,-7.377
CC(C)c1nc2c(n1C)CCN(CC(=O)Nc1nncs1)C2,-12.1,6.627,-
CC(C)n1ccc(-c2cc(C(=O)N3CCN(C)CC3)c3ccccn23)n1.O=C(O)C(F)(F)F,2.991,-,-46.58
Cc1sc(-n2cnnn2)c(C(=O)NC(C)C)c1C,0.6607,6.545,-29.27
CCOC(=O)CCN(Cc1cccnc1)C(=O)c1cc(Cl)c[nH]1,-30.1,14.8,-0.2414
[H][C@@]12CS(=O)(=O)C[C@]1([H])N(C(=O)c1cncnc1C)CCN2CCC,-12.26,-,-
O=C(c1cc(-n2cccn2)ccn1)N1CCOc2ncccc21,14.25,-,-
O=C(O)C(F)(F)F.[H][C@@]12COC[C@@H](CC(=O)N3CCCCO3)[C@]1([H])CN(Cc1ccc(F)cc1)C2,2.652,-,-
CN1C(=O)CCc2cc(NS(=O)(=O)Cc3cccc(F)c3)ccc21,0.6519,13.7,1.464
Cc1ccc(CNC(=O)Cn2ncc3c2c(C)nn3C)cc1,-0.3666,13.69,-
COc1cccc(Nc2nc(C3CCCNC3)c3ccccn23)c1 (stereo not drawn),-,16.82,-
CCc1cnc(N2Cc3cnc(C(C)(C)C)nc3C2)nc1,15.36,15.32,25.88
COc1ccc(-c2ccccc2CCN)c(OC)c1,29.14,14.09,-
COc1ccc(CN2CCCN(c3cc(C(N)=O)ccn3)CC2)cc1,-28.7,6.069,-35.75
CCN1C(=O)COC[C@@H]1[C@H](O)c1ccc(NC(=O)COC)cc1,-,6.767,-
COc1ccc(C2CC(=O)Nc3nc(N4CCOCC4)sc32)c(OC)c1 (stereo not drawn),3.311,17.56,45.08
COc1ccc(CN2CCc3nc(C4CCCCN4C)ncc3C2)cc1 (stereo not drawn),25.26,19.86,-
Cc1cc(C(=O)NCC2CCS(=O)(=O)C2)ccc1NC(=O)c1ccco1 (stereo not drawn),-8.053,23.21,-4.542
O=C(COCC1CC1)N1CCCC(n2cccn2)C1 (stereo not drawn),9.586,9.722,-
Cc1nc2c(c(N(C)C)n1)CCN(C(=O)CN1CCC(O)CC1)C2,-25.85,20.53,6.743
Cc1noc([C@@H]2CCCN2C(=O)C2CCN(CC(N)=O)CC2)n1,40.76,11.2,-
CN1CCOCC12CCN(c1ccc(C#N)cc1)CC2.O=C(O)C(F)(F)F,-18.75,-,18.98
O=C(O)C(F)(F)F.[H][C@@]12CN(C(=O)N(C)C)CCC[C@]1(C(=O)N(C)C)CN(c1ccccn1)C2,-29.23,-,20.27
Cc1nc(NCC2CC2)nc2c1COCC21CCNC1 (stereo not drawn),-10.92,-1.99,8.074
CS(=O)(=O)NCc1cn2c(n1)CN(C(=O)c1ccc[nH]1)CC2,1.953,13.59,-
Cc1noc(CN(Cc2ccco2)Cc2cccc3c2OCO3)n1,-36.36,6.443,24.88
O=C(NCc1cn2c(n1)CN(Cc1cccnc1)CC2)C1CCC1,-,6.667,-
CC(C)c1noc(CN2CCN(C(=O)c3cccnc3O)CC2)n1,-3.133,11.67,31.74
O=S(=O)(c1ccccc1Cl)N1CCc2nc(C3CCNCC3)ncc2C1,8.499,22.73,-
CCOC(=O)c1cnn(-c2cc(Oc3cc(C)ccc3C)ncn2)c1N,-10.05,9.392,-
O=C(NC1CCN(C2CC2)C1)c1cn(-c2ccc(F)cc2)nn1 (stereo not drawn),1.6,14.8,-19.5
Cc1nc(COC[C@@H]2CC[C@H]3[C@H](CCN3c3ncccn3)O2)cs1,-,13.59,-
O=C(c1ccno1)N1CC[C@@H]2CN(C3CCOCC3)CCO[C@@H]2C1,-,10.56,-
Cc1nc(CO[C@H]2CN(Cc3ccccn3)[C@@H]3CCCO[C@H]23)cs1,-,2.5,-
CN(C)C[C@@H]1CN(C(=O)Cc2ccccc2)C[C@@H]1CO,-2.693,4.902,-8.643
CCS(=O)(=O)N1CCC(c2nnc(CN3CCCC3)n2C2CC2)CC1,-10.87,14.63,13.34
CNS(=O)(=O)c1ccccc1N1CCN(C(=O)C(C)C)CC1,-1.674,19.26,-10.59
CN(CCO)Cc1nnc(C2CCN(C(=O)CN3CCCC3)CC2)n1C,-19.33,15.64,2.205
CCn1cc(NC(=O)C(C)n2ncc(Cl)c2C)c(C(=O)NC)n1 (stereo not drawn),15.34,6.266,11.88
CCN1CCC(N2CCC(C(=O)N(C)C)CC2)CC1.O=C(O)C(F)(F)F.O=C(O)C(F)(F)F,2.155,-,11.32
CN(Cc1ccc(F)cc1)C(=O)CN1CCCC(Cn2cncn2)C1 (stereo not drawn),4.601,-5.164,23.77
CCNc1nc(-c2cccnc2)c(-c2ccnc(N3CCCC3)n2)s1,-4.981,15.29,44.42
Cc1cc(C)c2nc(CN3CCOC(CCO)C3)cc(O)c2c1 (stereo not drawn),-15.72,16.3,-
Cc1ccccc1C(=O)N1CCOCC1CN(C)C.O=CO (stereo not drawn),0.8622,-,7.753
CN1CCC2(CC1)CN(C(=O)c1cccnc1)c1ccc(Cl)cc12,-0.05731,9.384,11.04
Cc1noc(C)c1C(=O)NCC(C)N(C)C (stereo not drawn),19.31,5.397,11.51
CCN(Cc1cc(-c2ccccn2)no1)C1CCS(=O)(=O)C1 (stereo not drawn),7.787,11.59,2.066
c1cnc(N2CCC3(CCN(CC4CCOC4)C3)CC2)nc1 (stereo not drawn),-,13.3,-
Cc1ccccc1C(C(=O)NCCS(C)(=O)=O)N(C)C (stereo not drawn),-3.536,17.69,1.53
CCN1CCN(C2CCN(Cc3ncc(C(C)(C)C)o3)CC2)C1=O,12.46,17.36,-
[H][C@]12CCN(c3cc(OC)ncn3)[C@@]1([H])C[C@H](C(=O)NCCN(C)C)O2,-14.26,-,7.844
CCCc1nnc2sc(CC3CN(Cc4ccccc4)CCO3)nn12 (stereo not drawn),8.429,3.364,22.38
COc1ccccc1S(=O)(=O)N1CC(N(C)C)Cc2ccccc21 (stereo not drawn),-33.01,3.679,-4.967
COc1ccc(CCC(=O)N(C)Cc2c(C)nn(C)c2C)cc1,2.832,6.7,17.27

Repeated from the top, 3 entries:

| Compound | Mtb heat-shock | LdMetRS | Mtb growth Cornell |
|---|---|---|---|
| `CCS(=O)(=O)N1CCC2(CCN(Cc3nccs3)CC2)CC1` | - | 7.268 | - |
| `Cc1ccccc1N1CCN(C(=O)Cn2ccnc2)CC1=O` | -32.13 | 1.375 | -7.377 |
| `CC(C)c1nc2c(n1C)CCN(CC(=O)Nc1nncs1)C2` | -12.1 | 6.627 | - |

Source: ChEMBL document CHEMBL3988442, “University of Dundee, Small-Polar-MMV Screening Library” (2021).